Results reported in PMC5813027.
Results are given in words; binding and its absence hold for the method and conditions named. In cells and extracts the contact can be indirect. A yes stands for co-enrichment or nearness to the bait. Other partners may have been found.

Amino acid sequences for entries named in this document (tags omitted).
UniProt P33176: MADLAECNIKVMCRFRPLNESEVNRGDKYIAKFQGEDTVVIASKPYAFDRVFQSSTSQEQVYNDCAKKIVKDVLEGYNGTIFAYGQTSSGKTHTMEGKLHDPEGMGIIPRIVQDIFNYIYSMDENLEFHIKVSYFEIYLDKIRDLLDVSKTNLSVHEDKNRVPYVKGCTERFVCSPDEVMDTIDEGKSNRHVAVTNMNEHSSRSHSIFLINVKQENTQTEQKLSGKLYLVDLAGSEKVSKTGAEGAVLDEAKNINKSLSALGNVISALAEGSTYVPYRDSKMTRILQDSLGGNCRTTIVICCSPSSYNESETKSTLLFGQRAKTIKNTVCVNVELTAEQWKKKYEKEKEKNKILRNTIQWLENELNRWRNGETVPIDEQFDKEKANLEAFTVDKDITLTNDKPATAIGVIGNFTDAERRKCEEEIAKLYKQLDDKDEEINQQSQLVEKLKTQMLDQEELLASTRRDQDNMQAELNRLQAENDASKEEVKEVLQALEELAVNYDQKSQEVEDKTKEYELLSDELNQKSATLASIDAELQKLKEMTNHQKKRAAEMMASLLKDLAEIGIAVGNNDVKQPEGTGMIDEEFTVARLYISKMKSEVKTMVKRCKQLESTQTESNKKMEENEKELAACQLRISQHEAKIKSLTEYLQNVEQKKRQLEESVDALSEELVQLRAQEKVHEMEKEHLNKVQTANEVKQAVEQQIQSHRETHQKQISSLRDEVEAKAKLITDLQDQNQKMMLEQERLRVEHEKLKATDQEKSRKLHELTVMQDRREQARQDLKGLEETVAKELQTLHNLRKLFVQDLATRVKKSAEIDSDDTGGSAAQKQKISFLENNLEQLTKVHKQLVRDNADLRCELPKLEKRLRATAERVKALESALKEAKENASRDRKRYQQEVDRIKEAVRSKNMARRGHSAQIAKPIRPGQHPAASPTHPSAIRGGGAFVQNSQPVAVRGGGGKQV

Target: T1, CCDC28B overexpressed from pCS2+_CCDC28B (human) (UniProt Q9BUN5)
T1 sequence: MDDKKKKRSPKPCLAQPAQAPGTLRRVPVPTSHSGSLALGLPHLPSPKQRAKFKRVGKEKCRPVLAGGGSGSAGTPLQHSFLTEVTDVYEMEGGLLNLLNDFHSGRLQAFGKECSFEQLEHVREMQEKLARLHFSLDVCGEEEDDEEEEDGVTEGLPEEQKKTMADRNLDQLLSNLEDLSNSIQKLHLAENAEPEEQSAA
Assay: affinity purification with mass spectrometry; Hek293 transfected with pCS2+_CCDC28B; biotinylated anti-CCDC28B VHH on Streptavidin-Agarose; SDS-PAGE, silver stain, main bands cut and analysed by mass spectrometry; irrelevant VHH as control

Substance | binding
kinesin 1 heavy chain KIF5B (from UniProt P33176 1-963) | binds
α/β-tubulin (human (endogenous in Hek293)) (complex) | binds
